Measured values: US20250281462A1, “THERAPEUTICALLY EFFECTIVE ORAL ADMINISTRATION OF A 2 ARYLBENZIMIDAZOLE” (Tranquis Therapeutics, Inc., priority 2021, published 2025)
At least one read-out could not be matched to a standard name with certainty.

Tests used:
[1] = Plasma concentrations of TQS-168 and TQS-621 after single oral dose 50 mg/kg in mice, three formulations; type: in vivo; conditions: 50 mg/kg p.o., Group 2 (solution)
Experimental: In a second experiment, mice were administered 50 mg/kg TQS-168 by oral gavage. For Group 1, TQS-168 was prepared at a concentration of 5.0 mg/mL in a suspension with […] in PBS. For Group 2, TQS-168 was prepared at a concentration of 5.0 mg/mL as a solution in 10 polyethylene glycol (PEG) 400|30 Kleptose (Roquete)|60% water.
Plasma exposures for Group 1 mice (ng/mL) are presented in Table 2 and for Group 2 mice in Table 3.
C57BL/6 male mice were administered a single dose of TQS-168 at 50 mg/kg using one of three formulations: Group 1-5.0 mg/ml suspension in 0.5% methylcellulose in PBS; Group 2-5.0 mg/ml solution in PEG400 (Fluka) 10%|Kleptose (Roquette) 30%|sterile water 60%; Group 3-5.0 mg/ml suspension in Labrafil M 1944 CS (Gattefosse) 30%|Masine CC (Gattefosse) 5%|Miglyol 812N 10%|sterile water 55%.
Plasma concentrations of TQS-168 and TQS-621 were measured overtime.

[2] = Plasma and brain concentrations after single oral dose in rats; type: in vivo
Experimental: Both male (n=3) and female (n=3) Sprague-Dawley rats were administered a single dose of TQS-168 by oral gavage at 50, 150, or 500 mg/kg of TQS-168. TQS-168 was prepared as a suspension with 0.5% methylcellulose in PBS.
Plasma samples were collected at 30, 60, 120, 240, and 1440 minutes after administration. Brain samples were collected in some animals at 60, 240, and 1440 minutes after the single oral dose of TQS-168 at 500 mg/kg. Samples were processed for LC-MS analysis of TQS-168 concentrations.
Cmax and AUC0-t values from the plasma tissues were calculated using PKSolver (Compute Methods Programs Biomed. 2010 September; 99(3):306-14. doi: 10.1016j.cmpb.2010.01.007. Epub 2010 Feb. 21) with the underlying data plotted FIG. 12a.

CC(C)(C)c1ccc(-c2nc3ccccc3[nH]2)cc1 [TQS-168, 2-(4-tert-butylphenyl)-1H-benzimidazole]
time to Cmax (Tmax) [1]: 50 min
time at which Cmax was detected ([2]; rats brain, oral administration (500 mg/kg)): 240 min
time at which Cmax was detected ([2]; rats plasma, oral administration): 240 min
